No constants are given. Whether binding was seen depends on the method and setting. In cells and extracts the contact can be indirect. A result given as binding can be weak or reduced; the word gives no strength.
Molecular target: T1, CREPT, endogenous (human (endogenous in SK-LU-1, H441, HEK-293T)) (UniProt Q9NQG5)
T1 sequence: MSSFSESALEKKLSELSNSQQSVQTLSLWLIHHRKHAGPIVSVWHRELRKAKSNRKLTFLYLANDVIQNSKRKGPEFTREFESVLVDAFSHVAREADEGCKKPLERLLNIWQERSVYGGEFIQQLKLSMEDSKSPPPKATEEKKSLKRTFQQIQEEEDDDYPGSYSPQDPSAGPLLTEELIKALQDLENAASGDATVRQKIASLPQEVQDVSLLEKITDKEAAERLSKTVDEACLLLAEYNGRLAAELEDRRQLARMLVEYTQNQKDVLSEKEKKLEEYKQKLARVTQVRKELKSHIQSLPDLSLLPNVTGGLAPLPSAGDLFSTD
Assay: co-IP; endogenous CREPT and ERK in HEK-293T under EGF stimulation and in H441 cells

binding: binds
Substance: ERK (extracellular signal-regulated kinase), endogenous (human (endogenous in HEK-293T, H441)) (enzyme)
